From article PMC9596149 come the findings set out here.

This test has as its target T1, GlnR of Lactobacillus plantarum WU14 (pGBKT7-GlnR) (Lactobacillus plantarum WU14) (UniProt F9UNV8).
T1 sequence: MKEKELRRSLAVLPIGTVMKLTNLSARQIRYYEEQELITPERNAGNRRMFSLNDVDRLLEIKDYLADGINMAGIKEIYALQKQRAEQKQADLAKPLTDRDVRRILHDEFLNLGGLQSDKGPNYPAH
Put plainly: two-hybrid; AH109 yeast co-transformed with pGBKT7-GlnR (bait) and pGADT7-Nir; SD/-Leu/-Trp/X-alpha-Gal and SD/-Leu/-Trp/-His+X-alpha-Gal plates, 30°C; blue colonies as read-out; empty pGBKT7 and pGADT7 as controls.

No constants are given. Whether binding was seen depends on the method and setting. Binding calls can cover weak binding; strength is not graded here.

Take “Nitrite reductase (Nir) of Lactobacillus plantarum WU14 (pGADT7-Nir) (enzyme)”: the binding result is listed as “binds”.
